Results from publication PMC11461821, “Structure of a Rhs effector clade domain provides mechanistic insights into type VI secretion system toxin delivery” (Nature Communications, 2024).
No constants are given. Whether binding was seen depends on the method and setting. Some binding calls cover weakened binding; strength is not graded here.

Target: Tse15NN Rhs domain with uncleaved toxin domain (residues 335-1590, D1369N, D1391N) (Acinetobacter baumannii (strain AB307-0294))
Assay: cryo-EM structure; single particle cryo-EM of purified protein, 3 mg/mL, UltrAuFoil grids; Tse15 at 200 kV (Talos Arctica), Tse15NN at 300 kV (Titan Krios); both purified

B1: Tse15 N-terminal clade domain (residues 1-334) (domain or fragment)
chain: MAKENTQQKEIKRQPAVELAVFNLNSVTDVADLQMIASQVQLYLQVCGNTTLEQIKSKANITTVANIFALTGSVLDLMLYATDKKTGDAAVQRGALLAANLIGLFSEPNNEAHARMALRPMFGLMAECLYRENGKIKETDIKRLGLHLNAMIAGDLENFLKETQAKLSSLLISATTLGVTILQSMATPATGINAGITTAAGASAEKRDPKLKFTNWAVPLIDLLGKPSQANLTPKIQPNITSRLQQEATQAIAALSQTLQQQANAGQKYTLAWLLQETLKAIQALENKGNASVPINQTGEYERHTKGDTLEFVSLQADALNAPPCEGADSQSGK
notes: Tse15, A. baumannii AB307-0294, N-terminal clade domain, residues 1-334; Residues 14-333 are modelled in the structure; also called N-terminal clade-specific domain; not shown: StrepTag-II, N-terminal, kept
In the case of B1, the binding is reported as “binds”.
